Test [1] addresses T1, phospho-GST-Serinc3-L10 (354-404), co-expressed with CK-II (human) (UniProt Q13530).
T1 sequence (chain, CKII-mediated phosphorylation at positions 367, 380, 383, and 404 (LC/MS)): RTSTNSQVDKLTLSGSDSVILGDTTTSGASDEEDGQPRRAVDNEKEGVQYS
In words: pull-down.

The chains behind the UniProt entries cited, without tags or fusion partners. Residues count along the entry.
UniProt P09958, residues 739-794: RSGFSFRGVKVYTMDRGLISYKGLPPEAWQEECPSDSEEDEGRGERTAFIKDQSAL

In test [2] the target is phospho-GST-Furin-CD (739-794), co-expressed with CK-II (UniProt P09958). The test is described as follows: pull-down.

Results are given in words; binding and its absence hold for the method and conditions named. Some binding calls cover weakened binding; strength is not graded here. Tags and fused reporters may be left off the sequences shown.

B1: MBP-µ1 (158-423), C-terminal two-thirds of the µ subunit of AP-1 fused to maltose binding protein (domain or fragment, UniProt P35585 158-423)
chain: SWRSEGIKYRKNEVFLDVIEAVNLLVSANGNVLRSEIVGSIKMRVFLSGMPELRLGLNDKVLFDNTGRGKSKSVELEDVKFHQCVRLSRFENDRTISFIPPDGEFELMSYRLNTHVKPLIWIESVIEKHSHSRIEYMVKAKSQFKRRSTANNVEIHIPVPNDADSPKFKTTVGSVKWVPENSEIVWSVKSFPGGKEYLMRAHFGLPSVEAEDKEGKPPISVKFEIPYFTTSGIQVRYLKIIEKSGYQALPWVRYITQNGDYQLRTQ
For the molecule B1, the binding result in test [1] and in test [2] was “binds” each time.

Source of the values: publication doi:10.1101/286633.
